PubChem BioAssay AID1259424 | University of Nebraska Medical Center | 2018

Screen: 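Rank knockdowns across the genome by resemblance to the KSR1 depletion profile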 (primary screen)
System: human HCT116 colon cancer cells
Reagent: siRNA pool against human genes, 50 nM
Detection: 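Log2 levels of six mRNAs (branched-DNA multiplex), adjusted by two reference genes and the non-targeting median, then scored against the average KSR1 knockdown pattern as Pearson r and euclidean distance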
Direction: mean correlation with KSR1 profile and KSR1 correlation: higher = expression change more like KSR1 knockdown; mean distance from KSR1 profile: higher = expression change less like KSR1 knockdown
In all, the deposit lists about 14,000 reagents; below is an unselected part. 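Higher correlation or smaller distance means closer resemblance to KSR1 loss; control wells, including KSR1 knockdowns, recur on many plates.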 The record does not give: the time to read-out.

gene symbol | mean correlation with KSR1 profile | mean distance from KSR1 profile | KSR1 correlation, replicate 1 | KSR1 correlation, replicate 2 | KSR1 correlation, replicate 3
NAPSA | -0.482 | 1.61 | -0.63 | -0.346 | -0.253
ATP13A2 | 0.158 | 2.47 | 0.157 | 0.145 | 0.0559
STYXL1 | -0.114 | 3.25 | -0.0598 | -0.464 | -0.0654
KANK1 | -0.301 | 1.9 | -0.25 | -0.278 | -0.279
NUDCD3 | 0.38 | 2.52 | 0.515 | 0.166 | 0.357
CADPS | -0.266 | 3.73 | -0.221 | -0.335 | -0.269
ADH1C | 0.097 | 3.85 | 0.179 | 0.0325 | -0.0477
USP35 | 0.708 | 0.724 | 0.673 | 0.524 | 0.566
IGDCC3 | -0.378 | 6.16 | -0.268 | -0.421 | -0.504
NQO1 | 0.159 | 3.25 | 0.118 | 0.169 | 0.072
BMP1 | -0.933 | 1.88 | -0.888 | -0.844 | -0.781
MPZ | 0.615 | 1.71 | 0.623 | 0.658 | 0.433
YAE1 | -0.203 | 3.43 | -0.493 | 0.0401 | 0.0137
SORCS2 | -0.018 | 2.37 | -0.00814 | -0.114 | -0.0713
KMT5A | 0.666 | 1.65 | 0.624 | 0.734 | 0.616
PSMB4 | 0.249 | 5.09 | 0.363 | 0.129 | 0.191

Already shown: an excerpt of the list.
gene symbol | mean correlation with KSR1 profile | mean distance from KSR1 profile | KSR1 correlation, replicate 1 | KSR1 correlation, replicate 2 | KSR1 correlation, replicate 3
ADH1C | 0.097 | 3.85 | 0.179 | 0.0325 | -0.0477
USP35 | 0.708 | 0.724 | 0.673 | 0.524 | 0.566
IGDCC3 | -0.378 | 6.16 | -0.268 | -0.421 | -0.504
NQO1 | 0.159 | 3.25 | 0.118 | 0.169 | 0.072
BMP1 | -0.933 | 1.88 | -0.888 | -0.844 | -0.781
MPZ | 0.615 | 1.71 | 0.623 | 0.658 | 0.433
YAE1 | -0.203 | 3.43 | -0.493 | 0.0401 | 0.0137

Next entries:
gene symbol | mean correlation with KSR1 profile | mean distance from KSR1 profile | KSR1 correlation, replicate 1 | KSR1 correlation, replicate 2 | KSR1 correlation, replicate 3
APOBEC3B | -0.0154 | 0.945 | -0.37 | -0.271 | 0.465
ELOVL5 | 0.406 | 2.1 | 0.257 | 0.451 | 0.399
SKP1 | -0.172 | 1.6 | -0.32 | -0.0153 | -0.475
EXOC5 | -0.0318 | 1.63 | -0.0163 | -0.118 | 0.195
BRMS1L | 0.287 | 2.2 | -0.04 | 0.447 | 0.547
ALPK2 | 0.0297 | 2.37 | 0.155 | 0.0338 | -0.299
CNN2 | 0.127 | 2.64 | 0.164 | 0.142 | -0.0843
WIPI1 | -0.603 | 4.78 | -0.578 | -0.693 | -0.545
PEX11A | -0.386 | 2.01 | -0.651 | -0.438 | -0.278
PRKAR1A | 0.527 | 2.15 | 0.629 | 0.558 | 0.26
PKHD1 | 0.00366 | 2.19 | -0.0632 | -0.0525 | 0.0541
KLK6 | -0.126 | 3.54 | -0.0835 | 0.21 | -0.19
CHL1 | -0.402 | 1.65 | -0.23 | -0.487 | -0.226
TBC1D24 | -0.799 | 2.26 | -0.808 | -0.759 | -0.845
ERP44 | -0.409 | 2.11 | -0.375 | -0.567 | -0.336
LMO3 | -0.00977 | 2.54 | 0.0123 | -0.287 | -0.000368
PRKY | 0.783 | 1.77 | 0.852 | 0.796 | 0.603
ZSCAN26 | 0.426 | 3.36 | 0.316 | 0.554 | 0.319
KLC2 | -0.266 | 1.07 | -0.486 | 0.199 | -0.228
PTH2R | 0.636 | 2.13 | 0.739 | 0.712 | 0.552
CRHBP | -0.79 | 2.09 | -0.685 | -0.826 | -0.611
SDHA | -0.0806 | 1.34 | 0.0389 | -0.224 | 0.251
SOCS2 | 0.22 | 1.51 | 0.396 | 0.0489 | 0.0194
NCALD | 0.429 | 2.35 | 0.483 | 0.233 | 0.331
FAM169A | -0.311 | 1.7 | -0.304 | -0.486 | -0.164
ZNF397 | 0.839 | 0.772 | 0.777 | 0.654 | 0.761
ALX4 | -0.503 | 3.92 | 0.0694 | -0.205 | -0.607
CCDC181 | 0.292 | 1.82 | -0.492 | -0.15 | 0.548
THAP12 | -0.155 | 3.69 | -0.178 | -0.0412 | -0.204
EPB41L2 | 0.0444 | 2.7 | -0.0402 | -0.202 | 0.0502
TOR1B | -0.376 | 2.29 | -0.393 | -0.546 | -0.729
MAP7D3 | 0.593 | 1.12 | 0.567 | 0.9 | 0.266
MOS | -0.138 | 3.32 | 0.0896 | -0.0426 | -0.272
MTERF2 | 0.772 | 2.12 | 0.798 | 0.794 | 0.576
